In paper PMC10518100:
Results are given in words; binding and its absence hold for the method and conditions named. Binding seen in cells or lysates may run through a third protein. Some entries that bind do so weakly or less than the wild type.

Chains of the proteins cited; added tags and fusions are not shown.
UniProt P08047: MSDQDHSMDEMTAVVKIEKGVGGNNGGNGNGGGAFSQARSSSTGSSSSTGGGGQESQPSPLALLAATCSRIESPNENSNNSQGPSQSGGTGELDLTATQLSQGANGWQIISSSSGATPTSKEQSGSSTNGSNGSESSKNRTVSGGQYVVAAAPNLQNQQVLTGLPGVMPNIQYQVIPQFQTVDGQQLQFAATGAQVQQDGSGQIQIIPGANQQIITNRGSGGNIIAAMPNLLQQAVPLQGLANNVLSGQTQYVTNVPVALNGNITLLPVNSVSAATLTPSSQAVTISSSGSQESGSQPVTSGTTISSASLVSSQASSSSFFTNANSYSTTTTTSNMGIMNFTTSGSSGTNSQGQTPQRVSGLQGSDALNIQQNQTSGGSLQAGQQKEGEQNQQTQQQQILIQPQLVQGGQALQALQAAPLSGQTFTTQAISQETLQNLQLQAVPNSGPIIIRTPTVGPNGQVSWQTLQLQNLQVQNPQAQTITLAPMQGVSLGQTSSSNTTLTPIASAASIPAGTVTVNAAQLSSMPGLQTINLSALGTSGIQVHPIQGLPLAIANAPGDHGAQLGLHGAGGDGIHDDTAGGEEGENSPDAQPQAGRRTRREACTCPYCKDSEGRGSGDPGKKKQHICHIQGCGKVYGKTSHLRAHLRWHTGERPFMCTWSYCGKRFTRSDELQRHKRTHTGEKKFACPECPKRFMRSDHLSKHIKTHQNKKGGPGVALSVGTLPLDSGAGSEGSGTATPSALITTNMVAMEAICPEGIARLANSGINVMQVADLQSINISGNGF
UniProt Q14258: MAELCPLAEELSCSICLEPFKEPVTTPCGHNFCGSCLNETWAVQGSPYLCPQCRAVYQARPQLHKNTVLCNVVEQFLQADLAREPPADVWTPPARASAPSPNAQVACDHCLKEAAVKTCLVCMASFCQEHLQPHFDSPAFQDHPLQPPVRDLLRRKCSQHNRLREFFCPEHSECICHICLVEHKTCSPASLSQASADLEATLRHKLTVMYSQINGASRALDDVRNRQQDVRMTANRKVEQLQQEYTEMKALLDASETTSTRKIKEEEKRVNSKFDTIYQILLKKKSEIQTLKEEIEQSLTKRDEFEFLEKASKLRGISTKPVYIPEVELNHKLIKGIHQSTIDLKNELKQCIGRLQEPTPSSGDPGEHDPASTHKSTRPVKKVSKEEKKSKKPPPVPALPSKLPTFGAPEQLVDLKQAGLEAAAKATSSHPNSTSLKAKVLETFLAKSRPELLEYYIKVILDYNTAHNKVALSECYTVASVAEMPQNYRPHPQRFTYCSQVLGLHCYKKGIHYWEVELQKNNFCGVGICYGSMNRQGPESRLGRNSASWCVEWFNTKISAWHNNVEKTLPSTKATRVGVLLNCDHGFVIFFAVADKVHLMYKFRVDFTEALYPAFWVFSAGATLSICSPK

Molecular target: Sp1 transcription factor (Sp1) (human) (UniProt P08047)
Experiment: co-IP; co-IP of Sp1 and TRIM25 in CRC cells with or without LINC00955 overexpression; bait and antibody not stated

binding: binds
Substance: tripartite motif containing 25 (TRIM25) (from UniProt Q14258 1-630) (enzyme)
